These are yes or no findings as the source states them, for the method shown. Binding seen in cells or lysates may run through a third protein. Some results given as binding are weak or reduced against the parent protein; the word gives no strength. For some assays here: Sequences can lack the tags named with a protein. Values belong to the substance of their own block, whether it stands above or below them.
Legend:
[1] = target: T1, RARα-V5 (human retinoic acid receptor α with V5 epitope tag) (human) (UniProt P10276); assay: co-immunoprecipitation with anti-V5, anti-RXRα western blot
T1 sequence: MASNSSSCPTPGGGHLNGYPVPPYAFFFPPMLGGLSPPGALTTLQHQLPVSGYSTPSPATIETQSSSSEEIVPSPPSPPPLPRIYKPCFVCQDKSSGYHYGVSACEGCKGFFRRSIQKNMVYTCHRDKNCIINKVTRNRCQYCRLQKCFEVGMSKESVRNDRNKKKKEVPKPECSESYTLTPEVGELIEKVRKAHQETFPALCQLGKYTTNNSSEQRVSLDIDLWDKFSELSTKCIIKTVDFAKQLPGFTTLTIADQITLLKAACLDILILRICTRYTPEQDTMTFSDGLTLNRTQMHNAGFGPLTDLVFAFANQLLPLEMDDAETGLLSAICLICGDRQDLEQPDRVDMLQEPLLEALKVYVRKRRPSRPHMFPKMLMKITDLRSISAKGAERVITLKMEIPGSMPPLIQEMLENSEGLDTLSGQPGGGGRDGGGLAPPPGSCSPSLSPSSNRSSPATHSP

By UniProt entry, the sequences of proteins in these tests, tags left out. Where a name states a change or a piece, a line headed by the entry shows the natural chain unless it says otherwise. Residues count along the entry.
UniProt P19793: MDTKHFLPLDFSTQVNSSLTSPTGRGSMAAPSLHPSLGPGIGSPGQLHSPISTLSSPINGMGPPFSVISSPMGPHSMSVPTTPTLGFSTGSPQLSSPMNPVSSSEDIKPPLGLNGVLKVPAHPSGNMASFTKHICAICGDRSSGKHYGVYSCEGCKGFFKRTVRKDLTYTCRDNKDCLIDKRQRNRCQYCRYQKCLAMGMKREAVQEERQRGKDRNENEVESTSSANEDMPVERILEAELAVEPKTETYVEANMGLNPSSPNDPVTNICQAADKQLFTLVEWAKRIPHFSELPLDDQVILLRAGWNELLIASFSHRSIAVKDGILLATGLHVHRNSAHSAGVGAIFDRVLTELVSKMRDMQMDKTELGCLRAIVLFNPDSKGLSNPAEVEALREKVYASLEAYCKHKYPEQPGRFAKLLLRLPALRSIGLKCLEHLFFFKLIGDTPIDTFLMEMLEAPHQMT
UniProt Q9Y6Q9, residues 2-1424: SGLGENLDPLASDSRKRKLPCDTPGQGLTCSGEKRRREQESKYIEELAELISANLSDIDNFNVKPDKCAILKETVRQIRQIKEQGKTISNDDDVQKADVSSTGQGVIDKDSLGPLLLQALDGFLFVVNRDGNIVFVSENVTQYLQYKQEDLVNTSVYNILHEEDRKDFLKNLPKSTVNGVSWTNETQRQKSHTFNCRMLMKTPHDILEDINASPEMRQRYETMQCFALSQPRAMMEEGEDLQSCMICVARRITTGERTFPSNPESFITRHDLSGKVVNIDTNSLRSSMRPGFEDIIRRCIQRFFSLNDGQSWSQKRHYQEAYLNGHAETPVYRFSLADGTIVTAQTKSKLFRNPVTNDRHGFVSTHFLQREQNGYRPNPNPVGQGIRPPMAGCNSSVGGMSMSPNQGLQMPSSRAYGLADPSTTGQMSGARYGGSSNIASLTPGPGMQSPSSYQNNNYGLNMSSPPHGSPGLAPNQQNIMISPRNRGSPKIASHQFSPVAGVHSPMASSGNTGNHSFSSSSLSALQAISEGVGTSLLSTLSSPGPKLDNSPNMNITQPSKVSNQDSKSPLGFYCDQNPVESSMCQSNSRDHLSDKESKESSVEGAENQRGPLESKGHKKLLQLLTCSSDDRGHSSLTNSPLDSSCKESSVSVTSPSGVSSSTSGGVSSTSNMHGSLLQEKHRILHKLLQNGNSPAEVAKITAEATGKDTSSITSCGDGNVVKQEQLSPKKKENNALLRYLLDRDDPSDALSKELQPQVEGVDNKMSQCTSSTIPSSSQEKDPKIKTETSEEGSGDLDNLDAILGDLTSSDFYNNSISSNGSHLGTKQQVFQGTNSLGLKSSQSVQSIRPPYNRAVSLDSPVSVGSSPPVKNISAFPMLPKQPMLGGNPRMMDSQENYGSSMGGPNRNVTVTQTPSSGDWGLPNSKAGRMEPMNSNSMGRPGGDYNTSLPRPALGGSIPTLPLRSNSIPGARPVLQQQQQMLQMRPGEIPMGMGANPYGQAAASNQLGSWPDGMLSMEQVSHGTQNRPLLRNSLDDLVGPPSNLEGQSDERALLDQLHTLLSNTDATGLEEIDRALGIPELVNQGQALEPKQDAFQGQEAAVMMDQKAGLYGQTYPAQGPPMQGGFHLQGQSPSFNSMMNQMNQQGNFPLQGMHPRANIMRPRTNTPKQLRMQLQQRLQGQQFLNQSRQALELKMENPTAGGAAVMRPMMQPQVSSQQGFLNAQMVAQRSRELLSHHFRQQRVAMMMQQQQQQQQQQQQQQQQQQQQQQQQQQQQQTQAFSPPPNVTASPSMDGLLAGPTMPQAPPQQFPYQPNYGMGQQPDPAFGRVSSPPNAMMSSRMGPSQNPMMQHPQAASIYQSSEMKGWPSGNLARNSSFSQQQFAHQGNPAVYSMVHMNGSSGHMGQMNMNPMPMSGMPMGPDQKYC
UniProt O75376: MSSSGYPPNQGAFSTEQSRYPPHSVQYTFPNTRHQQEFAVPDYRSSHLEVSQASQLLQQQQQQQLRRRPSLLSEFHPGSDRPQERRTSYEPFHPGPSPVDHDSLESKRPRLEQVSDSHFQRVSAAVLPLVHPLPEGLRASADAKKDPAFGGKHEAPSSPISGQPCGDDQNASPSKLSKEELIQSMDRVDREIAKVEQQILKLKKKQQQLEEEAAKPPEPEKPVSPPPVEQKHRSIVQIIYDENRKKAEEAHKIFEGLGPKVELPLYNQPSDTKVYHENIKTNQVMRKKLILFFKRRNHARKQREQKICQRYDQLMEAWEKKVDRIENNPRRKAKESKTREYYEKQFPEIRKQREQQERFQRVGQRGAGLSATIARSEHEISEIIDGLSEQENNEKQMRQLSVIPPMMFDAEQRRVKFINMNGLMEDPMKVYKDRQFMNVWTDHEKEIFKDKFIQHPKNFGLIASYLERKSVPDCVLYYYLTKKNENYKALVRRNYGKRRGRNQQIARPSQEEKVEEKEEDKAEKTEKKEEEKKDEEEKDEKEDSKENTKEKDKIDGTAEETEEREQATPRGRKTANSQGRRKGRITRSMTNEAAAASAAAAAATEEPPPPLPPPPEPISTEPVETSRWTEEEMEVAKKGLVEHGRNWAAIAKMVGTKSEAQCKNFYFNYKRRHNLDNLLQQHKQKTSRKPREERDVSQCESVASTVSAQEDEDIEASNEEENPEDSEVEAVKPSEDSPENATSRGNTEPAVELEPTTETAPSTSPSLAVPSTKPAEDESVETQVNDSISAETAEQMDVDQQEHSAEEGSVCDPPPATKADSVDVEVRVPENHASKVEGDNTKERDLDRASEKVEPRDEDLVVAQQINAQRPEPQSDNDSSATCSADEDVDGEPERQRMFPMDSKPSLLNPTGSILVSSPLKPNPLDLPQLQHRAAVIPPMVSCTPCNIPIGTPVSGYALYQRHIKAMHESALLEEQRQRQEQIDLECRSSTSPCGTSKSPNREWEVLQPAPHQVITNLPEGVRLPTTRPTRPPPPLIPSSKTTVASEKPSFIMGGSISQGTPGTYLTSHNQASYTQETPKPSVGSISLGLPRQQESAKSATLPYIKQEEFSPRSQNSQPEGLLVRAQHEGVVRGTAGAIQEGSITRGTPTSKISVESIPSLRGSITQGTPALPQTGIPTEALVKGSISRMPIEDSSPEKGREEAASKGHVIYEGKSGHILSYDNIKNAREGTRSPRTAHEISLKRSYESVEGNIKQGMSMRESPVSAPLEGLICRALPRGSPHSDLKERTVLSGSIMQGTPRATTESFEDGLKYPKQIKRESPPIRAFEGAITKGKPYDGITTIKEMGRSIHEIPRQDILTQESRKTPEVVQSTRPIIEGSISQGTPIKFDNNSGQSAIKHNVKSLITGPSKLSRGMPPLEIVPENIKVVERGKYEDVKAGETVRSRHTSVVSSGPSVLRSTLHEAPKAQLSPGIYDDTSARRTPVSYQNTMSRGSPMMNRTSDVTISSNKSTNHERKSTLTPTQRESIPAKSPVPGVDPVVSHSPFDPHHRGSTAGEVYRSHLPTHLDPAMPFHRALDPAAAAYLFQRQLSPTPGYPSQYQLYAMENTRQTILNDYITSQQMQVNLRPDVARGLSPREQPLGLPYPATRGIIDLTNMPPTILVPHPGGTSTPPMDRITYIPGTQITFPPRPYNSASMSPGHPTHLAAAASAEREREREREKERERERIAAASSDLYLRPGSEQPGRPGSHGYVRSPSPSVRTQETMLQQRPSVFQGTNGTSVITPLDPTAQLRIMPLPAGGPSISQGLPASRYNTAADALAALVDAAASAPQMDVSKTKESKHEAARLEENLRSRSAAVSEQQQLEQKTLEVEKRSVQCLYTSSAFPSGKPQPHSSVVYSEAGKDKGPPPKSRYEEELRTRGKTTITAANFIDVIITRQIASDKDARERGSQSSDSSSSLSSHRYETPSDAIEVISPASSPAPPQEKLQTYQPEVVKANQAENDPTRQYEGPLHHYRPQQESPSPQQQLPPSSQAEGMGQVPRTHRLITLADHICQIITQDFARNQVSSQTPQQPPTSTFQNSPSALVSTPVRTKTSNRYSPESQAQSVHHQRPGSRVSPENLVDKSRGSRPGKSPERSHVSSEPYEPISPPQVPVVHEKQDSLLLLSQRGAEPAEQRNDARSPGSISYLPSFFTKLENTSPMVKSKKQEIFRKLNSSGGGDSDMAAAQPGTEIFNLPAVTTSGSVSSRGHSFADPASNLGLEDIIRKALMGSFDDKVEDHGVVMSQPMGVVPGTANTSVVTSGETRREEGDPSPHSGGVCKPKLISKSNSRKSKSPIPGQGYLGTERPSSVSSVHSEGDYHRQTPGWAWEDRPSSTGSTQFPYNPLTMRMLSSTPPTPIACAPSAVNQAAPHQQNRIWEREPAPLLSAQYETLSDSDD

[2] = target: RARα/RXRα heterodimer (wild type RARα-V5 with RXRα) in the RAR/RXR/DNA ternary complex (human) (UniProt P19793); assay: DNA dependent coregulator recruitment assay (co-immunoprecipitation, western blot), ligands at 1 µM
[3] = target: RARα/RXRα heterodimer (wild type RARα-V5 with RXRα) in the RAR/RXR/DNA ternary complex (human) (UniProt P19793); assay: co-immunoprecipitation of ternary complex at escalating doses of AGN194794 or AGN196382, western blot
[4] = target: RARα/RXRα heterodimer (wild type RARα-V5 with RXRα) in the RAR/RXR/DNA ternary complex (human) (UniProt P19793); assay: co-immunoprecipitation (anti-V5) of ternary complex, western blot; N-CoR bound without ligand, released with 1 µM TTNPB
[5] = target: RARα/RXRα?C heterodimer (RARα-V5 with the dominant negative truncated RXRα) in the ternary complex (human) (UniProt P19793); assay: co-immunoprecipitation (anti-V5) of ternary complex from transfected CV-1 extract, anti-N-CoR western blot
[6] = target: RARα/RXRα?C heterodimer (RARα-V5 with the dominant negative truncated RXRα) in the ternary complex (human) (UniProt P19793); assay: co-immunoprecipitation (anti-V5) of ternary complex, western blot; with 1 µM TTNPB
[7] = target: RARα/RXRα heterodimer (wild type RARα-V5 with RXRα) in the RAR/RXR/DNA ternary complex (human) (UniProt P19793); assay: co-immunoprecipitation of ternary complex, western blot; ligands at 1 µM

- binding [1]: binds
Substance: RXRα?C (dominant negative RXR derivative truncated at amino acid 448) (from UniProt P19793 1-448) (receptor)

- binding [2]: binds
Substance: ACTR/p/CIP/AIB1/NCoA-3 (from UniProt Q9Y6Q9 2-1424)

- binding [1]: binds
Substance: RXRα (retinoid X receptor α) (from UniProt P19793 1-462)

- binding [3]: binds
- binding [4]: binds
- binding [5]: binds
- binding [6]: binds
- binding [7]: binds
Substance: N-CoR (nuclear receptor corepressor) (from UniProt O75376 1-2440)
